{
  "source": "paper PMC7819943",
  "about": "“Rice protein-binding microarrays: a tool to detect cis-acting elements near promoter regions in rice”",
  "note": "This is one part of the list.",
  "data": [
    {"biological_target": "T1, OsSMF1 (Oryza sativa, UniProt Q6ZLB0 1-436)", "T1 sequence": "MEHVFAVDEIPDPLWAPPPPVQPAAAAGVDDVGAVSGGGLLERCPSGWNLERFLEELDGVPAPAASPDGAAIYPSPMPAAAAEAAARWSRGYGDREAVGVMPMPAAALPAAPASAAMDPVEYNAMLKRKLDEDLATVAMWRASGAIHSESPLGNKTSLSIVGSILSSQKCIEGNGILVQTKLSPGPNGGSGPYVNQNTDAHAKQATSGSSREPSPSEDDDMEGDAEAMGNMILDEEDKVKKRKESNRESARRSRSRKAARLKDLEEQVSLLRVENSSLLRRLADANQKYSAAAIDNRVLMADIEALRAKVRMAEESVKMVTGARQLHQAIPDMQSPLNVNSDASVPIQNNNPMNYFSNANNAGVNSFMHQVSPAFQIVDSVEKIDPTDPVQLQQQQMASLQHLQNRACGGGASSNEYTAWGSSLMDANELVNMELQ", "assay": "protein-binding microarray (RPBM); PBS, 2% BSA, 51.3 ng/ul salmon testes DNA, 50 uM zinc acetate, 200 nM TF, 25 C, 1 h; high values mean tight binding", "conditions": "protein: recombinant; tags: N-terminal polyhistidine and DsRed monomer fusion (pET32a); chain copies: 2; label: CyDye5-dUTP incorporated in the synthesized complementary strand; 3' TTTTT single-stranded linker to array surface; dsDNA, one strand shown", "procedure,_shortened": "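Ni–NTA purification followed expression in E. coli BL21-CodonPlus of transcription factors fused N-terminally to a polyhistidine tag and DsRed. At 200 nM in PBS with 2% BSA, salmon testes DNA and 50 µM zinc acetate, the protein was incubated for 1 h at 25 °C with a custom Agilent array that had been primer-extended with Cy5-dUTP and blocked with 2% BSA. After washing, the array was read on an Axon 4000B scanner. The binding signal is per-feature fluorescence intensity in arbitrary units.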", "values": [
      {"sequence": "CGGTGTTGTAAATTGGGCCCATATGTCGTGTACATGCAAGCGGAGTCACCTAGTGCAG", "binding signal": "3880 fluorescence intensity (a.u.)"},
      {"sequence": "AAGCATGAAATTTGGTTGTTACAGTATGAATATCACAAATCGGAGTCACCTAGTGCAG", "binding signal": "18400 fluorescence intensity (a.u.)"},
      {"sequence": "CCGGTCTAAATCTGGAATTTCAAATTTGAACTTGAAAGTTCGGAGTCACCTAGTGCAG", "binding signal": "34100 fluorescence intensity (a.u.)"},
      {"sequence": "GTCACCCTCATGCGTATGACATGGCCGCTGTCTTATGTCGCGGAGTCACCTAGTGCAG", "binding signal": "4480 fluorescence intensity (a.u.)"},
      {"sequence": "ATTGGCTGACATGTGGGTCCTATTGAATCAGTGAGTCAACCGGAGTCACCTAGTGCAG", "binding signal": "4760 fluorescence intensity (a.u.)"},
      {"sequence": "GTGAGCGTGTGTGAGTATGGTGTTACATGTTTAATAGTGTCGGAGTCACCTAGTGCAG", "binding signal": "3470 fluorescence intensity (a.u.)"},
      {"sequence": "TGGCTATCTTACCTCCCTTTTCTGCGCCGCGTCCTCCTCTCGGAGTCACCTAGTGCAG", "binding signal": "3290 fluorescence intensity (a.u.)"},
      {"sequence": "GAGAGAGAGAGAGATGCGGCGTGGCAGCAGCAGCAGCAGCCGGAGTCACCTAGTGCAG", "binding signal": "3300 fluorescence intensity (a.u.)"},
      {"sequence": "GTCCTGCTTGTTGATGTCATCCTTCCAGAATTCGATGTCGCGGAGTCACCTAGTGCAG", "binding signal": "5200 fluorescence intensity (a.u.)"},
      {"sequence": "TTTCTATGCGGGCCACTTAACACGTCCGCACGCGAAAATACGGAGTCACCTAGTGCAG", "binding signal": "4910 fluorescence intensity (a.u.)"},
      {"sequence": "CCTGATCAGAAGTCAGACGTCAGATCTTCCTCATGGCCGACGGAGTCACCTAGTGCAG", "binding signal": "3170 fluorescence intensity (a.u.)"},
      {"sequence": "TTCTACATTTAATACTCCATGTATGTGTCCAAATATTCGACGGAGTCACCTAGTGCAG", "binding signal": "24800 fluorescence intensity (a.u.)"},
      {"sequence": "TAGCTAAATGTCAATTTTCTCGTCTATGTGGCAGTCGCCACGGAGTCACCTAGTGCAG", "binding signal": "3640 fluorescence intensity (a.u.)"},
      {"sequence": "TGCATAGTCCTTGGCTCGAATGCGTGGATGCACTATGTGGCGGAGTCACCTAGTGCAG", "binding signal": "4070 fluorescence intensity (a.u.)"},
      {"sequence": "TCTCCCTCTACCTCGACGTCATCAACCTCTTCCTCTCCCTCGGAGTCACCTAGTGCAG", "binding signal": "11000 fluorescence intensity (a.u.)"},
      {"sequence": "GTGTGTGTGTTTGTGTGACCTGGCCTTTGTATGAATGGAACGGAGTCACCTAGTGCAG", "binding signal": "3790 fluorescence intensity (a.u.)"},
      {"sequence": "CCCTTTCCTCGTCGTCGTCCACGCATGCCGTCCACCGGCGCGGAGTCACCTAGTGCAG", "binding signal": "4680 fluorescence intensity (a.u.)"},
      {"sequence": "TACTTTTACTTATAAATGTAGTTATTTTAGATCAATTTGACGGAGTCACCTAGTGCAG", "binding signal": "3250 fluorescence intensity (a.u.)"},
      {"sequence": "CCGGTGAACGGTTTGAGTGAGTGTAGGGGTACACATTTCTCGGAGTCACCTAGTGCAG", "binding signal": "35300 fluorescence intensity (a.u.)"},
      {"sequence": "TATACATAAATATCTAATTTATATACATTAACCGTCATGACGGAGTCACCTAGTGCAG", "binding signal": "3150 fluorescence intensity (a.u.)"},
      {"sequence": "GGCAGTCAGACCGGCGGGAGCACAGCGGTCAGACGTGTGGCGGAGTCACCTAGTGCAG", "binding signal": "3560 fluorescence intensity (a.u.)"},
      {"sequence": "GTCGCCGGCGCCGACACGCAGCTCCTCGTCCCGGCCATGGCGGAGTCACCTAGTGCAG", "binding signal": "4080 fluorescence intensity (a.u.)"},
      {"sequence": "GGCTCTCTAGCTCGGTCGATCATCCATGACGTCACTACAACGGAGTCACCTAGTGCAG", "binding signal": "9930 fluorescence intensity (a.u.)"},
      {"sequence": "TCGTTGTGATAGAGAGCATCACTGCATCAGCATCGGCCTACGGAGTCACCTAGTGCAG", "binding signal": "3940 fluorescence intensity (a.u.)"},
      {"sequence": "TTTGCATTGACTTGATATAGTATGTCACCATCACACTATCCGGAGTCACCTAGTGCAG", "binding signal": "5460 fluorescence intensity (a.u.)"},
      {"sequence": "ATTTGAAGATGGAAGTGCTGCTCATTAGCTCATGTTGAGGCGGAGTCACCTAGTGCAG", "binding signal": "3370 fluorescence intensity (a.u.)"},
      {"sequence": "TCGGCGAGGTGAACACAATGGCGATGACGTCGCAATGTGACGGAGTCACCTAGTGCAG", "binding signal": "4690 fluorescence intensity (a.u.)"},
      {"sequence": "AGCCACTGATACCCACACCTATGGATTGCTGCCCCACTTTCGGAGTCACCTAGTGCAG", "binding signal": "3540 fluorescence intensity (a.u.)"},
      {"sequence": "CGTTGCCGCGTCGCGACACGTCAGCGCGCGCTGGAGAGAGCGGAGTCACCTAGTGCAG", "binding signal": "8470 fluorescence intensity (a.u.)"},
      {"sequence": "TCGGCCGCATGCACCGCATCATGCTCAATGCCACGACCACCGGAGTCACCTAGTGCAG", "binding signal": "20700 fluorescence intensity (a.u.)"},
      {"sequence": "CAAAATCTCATGTCGTGCACGCACATTTTCCATGGCTATACGGAGTCACCTAGTGCAG", "binding signal": "3340 fluorescence intensity (a.u.)"},
      {"sequence": "CGTCGTATTAACCTCTCTAAACCCCGTGGCGTCAGCGACGCGGAGTCACCTAGTGCAG", "binding signal": "5270 fluorescence intensity (a.u.)"},
      {"sequence": "CGTGGTGGTGGTAGGGGAGGGGATGGATGATATGGCGTGACGGAGTCACCTAGTGCAG", "binding signal": "6780 fluorescence intensity (a.u.)"},
      {"sequence": "AAGCTAATCGCCTTGTCAGACACCCGCATCCCCACCATCCCGGAGTCACCTAGTGCAG", "binding signal": "3840 fluorescence intensity (a.u.)"},
      {"sequence": "CGCTGTTTGGCCGCGGCGCCAGCGCCGTCATCGTGGGCACCGGAGTCACCTAGTGCAG", "binding signal": "3140 fluorescence intensity (a.u.)"},
      {"sequence": "AAGAGAACACAACCTAATGACGCGGTACACGGGACACCCACGGAGTCACCTAGTGCAG", "binding signal": "4630 fluorescence intensity (a.u.)"},
      {"sequence": "TTAGTGTCTGCATTGGATATGAGTCACGGGTTCTTGGTTACGGAGTCACCTAGTGCAG", "binding signal": "12600 fluorescence intensity (a.u.)"},
      {"sequence": "TTTTATAAGTAGTAAATATGACGTCGATTCCTGACTAAAACGGAGTCACCTAGTGCAG", "binding signal": "5550 fluorescence intensity (a.u.)"},
      {"sequence": "AGATTATTAATCATGGCGACACGAATGGAAATGGTTAATACGGAGTCACCTAGTGCAG", "binding signal": "3240 fluorescence intensity (a.u.)"},
      {"sequence": "ACCACTCACATGTACTGTCAGCATATCCTACGTTCTCTCCCGGAGTCACCTAGTGCAG", "binding signal": "6070 fluorescence intensity (a.u.)"},
      {"sequence": "TGCTTAGCCGTGCGGCCCGTGCGGCGTCAATGGCGTGGCGCGGAGTCACCTAGTGCAG", "binding signal": "4440 fluorescence intensity (a.u.)"},
      {"sequence": "TACTTCTTCTAAATGCTATAGCCAGGGAATGCAAACGAGACGGAGTCACCTAGTGCAG", "binding signal": "42000 fluorescence intensity (a.u.)"}
    ]}
  ]
}
